Assay: Diurnal fluctuations of OXA and OXB levels in cisternal and lumbar CSF by nanoLC-HRMS
Format: in vivo, cynomolgus monkey
[1] = LLOQ 2.5 pg/mL, given a value of 0 pg/mL
[2] = percentage relative to maximum concentration in each animal, mean, N = 5

Orexin-A (QPLPDCCRQKTCSCRLYELLHGAGNHAAGILTL; Orexin-A; UniProt O43612 34-66, looked up) [OXA, 33-amino acid peptide with N-terminal pyroglutamylation, amidation of the C-terminal leucine, and two intramolecular disulfide bridges]
concentration in cisternal CSF, animal-1 at 3:00 [1]: below the LLOQ
concentration in lumbar CSF, animal-1 at 8:00 [1]: below the LLOQ
mean molar ratio of OXA to OXB (cisternal CSF, mean ± SD): 5.3 ± 3.9
concentration in the CSF sample used in PRM analysis (monkey cisternal CSF sample at 17:00, nanoLC-HRMS): 179.5 pg/mL
bottom level at 7:00, % of the maximum, cisternal CSF [2]: 33.5%
bottom level at 7:00, % of the maximum, lumbar CSF [2]: 17.6%
